Results are given in words; binding and its absence hold for the method and conditions named. In cells and extracts the contact can be indirect. Here binding means that the protein was enriched with, or labelled near, the bait; the list need not be complete.
B1: MED24 (protein, UniProt O75448 1-989)
chain: MKVVNLKQAILQAWKERWSDYQWAINMKKFFPKGATWDILNLADALLEQAMIGPSPNPLILSYLKYAISSQMVSYSSVLTAISKFDDFSRDLCVQALLDIMDMFCDRLSCHGKAEECIGLCRALLSALHWLLRCTAASAERLREGLEAGTPAAGEKQLAMCLQRLEKTLSSTKNRALLHIAKLEEASSWTAIEHSLLKLGEILANLSNPQLRSQAEQCGTLIRSIPTMLSVHAEQMHKTGFPTVHAVILLEGTMNLTGETQSLVEQLTMVKRMQHIPTPLFVLEIWKACFVGLIESPEGTEELKWTAFTFLKIPQVLVKLKKYSHGDKDFTEDVNCAFEFLLKLTPLLDKADQRCNCDCTNFLLQECGKQGLLSEASVNNLMAKRKADREHAPQQKSGENANIQPNIQLILRAEPTVTNILKTMDADHSKSPEGLLGVLGHMLSGKSLDLLLAAAAATGKLKSFARKFINLNEFTTYGSEESTKPASVRALLFDISFLMLCHVAQTYGSEVILSESRTGAEVPFFETWMQTCMPEEGKILNPDHPCFRPDSTKVESLVALLNNSSEMKLVQMKWHEACLSISAAILEILNAWENGVLAFESIQKITDNIKGKVCSLAVCAVAWLVAHVRMLGLDEREKSLQMIRQLAGPLFSENTLQFYNERVVIMNSILERMCADVLQQTATQIKFPSTGVDTMPYWNLLPPKRPIKEVLTDIFAKVLEKGWVDSRSIHIFDTLLHMGGVYWFCNNLIKELLKETRKEHTLRAVELLYSIFCLDMQQVTLVLLGHILPGLLTDSSKWHSLMDPPGTALAKLAVWCALSSYSSHKGQASTRQKKRHREDIEDYISLFPLDDVQPSKLMRLLSSNEDDANILSSPTDRSMSSSLSASQLHTVNMRDPLNRVLANLFLLISSILGSRTAGPHTQFVQWFMEECVDCLEQGGRGSVLQFMPFTTVSELVKVSAMSSPKVVLAITDLSLPLGRQVAAKAIAAL
B2: RFX1 (protein, UniProt P22670 1-979)
chain: MATQAYTELQAAPPPSQPPQAPPQAQPQPPPPPPPAAPQPPQPPTAAATPQPQYVTELQSPQPQAQPPGGQKQYVTELPAVPAPSQPTGAPTPSPAPQQYIVVTVSEGAMRASETVSEASPGSTASQTGVPTQVVQQVQGTQQRLLVQTSVQAKPGHVSPLQLTNIQVPQQALPTQRLVVQSAAPGSKGGQVSLTVHGTQQVHSPPEQSPVQANSSSSKTAGAPTGTVPQQLQVHGVQQSVPVTQERSVVQATPQAPKPGPVQPLTVQGLQPVHVAQEVQQLQQVPVPHVYSSQVQYVEGGDASYTASAIRSSTYSYPETPLYTQTASTSYYEAAGTATQVSTPATSQAVASSGSMPMYVSGSQVVASSTSTGAGASNSSGGGGSGGGGGGGGGGGGGGSGSTGGGGSGAGTYVIQGGYMLGSASQSYSHTTRASPATVQWLLDNYETAEGVSLPRSTLYCHYLLHCQEQKLEPVNAASFGKLIRSVFMGLRTRRLGTRGNSKYHYYGLRIKASSPLLRLMEDQQHMAMRGQPFSQKQRLKPIQKMEGMTNGVAVGQQPSTGLSDISAQVQQYQQFLDASRSLPDFTELDLQGKVLPEGVGPGDIKAFQVLYREHCEAIVDVMVNLQFTLVETLWKTFWRYNLSQPSEAPPLAVHDEAEKRLPKAILVLLSKFEPVLQWTKHCDNVLYQGLVEILIPDVLRPIPSALTQAIRNFAKSLESWLTHAMVNIPEEMLRVKVAAAGAFAQTLRRYTSLNHLAQAARAVLQNTAQINQMLSDLNRVDFANVQEQASWVCRCEDRVVQRLEQDFKVTLQQQNSLEQWAAWLDGVVSQVLKPYQGSAGFPKAAKLFLLKWSFYSSMVIRDLTLRSAASFGSFHLIRLLYDEYMYYLIEHRVAQAKGETPIAVMGEFANLATSLNPLDPDKDEEEEEEEESEDELPQDISLAAGGESPALGPETLEPPAKLARTDARGLFVQALPSS
B3: SAP130 (protein, UniProt Q9H0E3 1-1048)
chain: MGPPRHPQAGEIEAGGAGGGRRLQVEMSSQQFPRLGAPSTGLSQAPSQIANSGSAGLINPAATVNDESGRDSEVSAREHMSSSSSLQSREEKQEPVVVRPYPQVQMLSTHHAVASATPVAVTAPPAHLTPAVPLSFSEGLMKPPPKPTMPSRPIAPAPPSTLSLPPKVPGQVTVTMESSIPQASAIPVATISGQQGHPSNLHHIMTTNVQMSIIRSNAPGPPLHIGASHLPRGAAAAAVMSSSKVTTVLRPTSQLPNAATAQPAVQHIIHQPIQSRPPVTTSNAIPPAVVATVSATRAQSPVITTTAAHATDSALSRPTLSIQHPPSAAISIQRPAQSRDVTTRITLPSHPALGTPKQQLHTMAQKTIFSTGTPVAAATVAPILATNTIPSATTAGSVSHTQAPTSTIVTMTVPSHSSHATAVTTSNIPVAKVVPQQITHTSPRIQPDYPAERSSLIPISGHRASPNPVAMETRSDNRPSVPVQFQYFLPTYPPSAYPLAAHTYTPITSSVSTIRQYPVSAQAPNSAITAQTGVGVASTVHLNPMQLMTVDASHARHIQGIQPAPISTQGIQPAPIGTPGIQPAPLGTQGIHSATPINTQGLQPAPMGTQQPQPEGKTSAVVLADGATIVANPISNPFSAAPAATTVVQTHSQSASTNAPAQGSSPRPSILRKKPATDGAKPKSEIHVSMATPVTVSMETVSNQNNDQPTIAVPPTAQQPPPTIPTMIAAASPPSQPAVALSTIPGAVPITPPITTIAAAPPPSVTVGGSLSSVLGPPVPEIKVKEEVEPMDIMRPVSAVPPLATNTVSPSLALLANNLSMPTSDLPPGASPRKKPRKQQHVISTEEGDMMETNSTDDEKSTAKSLLVKAEKRKSPPKEYIDEEGVRYVPVRPRPPITLLRHYRNPWKAAYHHFQRYSDVRVKEEKKAMLQEIANQKGVSCRAQGWKVHLCAAQLLQLTNLEHDVYERLTNLQEGIIPKKKAATDDDLHRINELIQGNMQRCKLVMDQISEARDSMLKVLDHKDRVLKLLNKNGTVKKVSKLKRKEKV

Protein sequences, listed by entry. Tags and fused reporters are not part of them.
UniProt P03372: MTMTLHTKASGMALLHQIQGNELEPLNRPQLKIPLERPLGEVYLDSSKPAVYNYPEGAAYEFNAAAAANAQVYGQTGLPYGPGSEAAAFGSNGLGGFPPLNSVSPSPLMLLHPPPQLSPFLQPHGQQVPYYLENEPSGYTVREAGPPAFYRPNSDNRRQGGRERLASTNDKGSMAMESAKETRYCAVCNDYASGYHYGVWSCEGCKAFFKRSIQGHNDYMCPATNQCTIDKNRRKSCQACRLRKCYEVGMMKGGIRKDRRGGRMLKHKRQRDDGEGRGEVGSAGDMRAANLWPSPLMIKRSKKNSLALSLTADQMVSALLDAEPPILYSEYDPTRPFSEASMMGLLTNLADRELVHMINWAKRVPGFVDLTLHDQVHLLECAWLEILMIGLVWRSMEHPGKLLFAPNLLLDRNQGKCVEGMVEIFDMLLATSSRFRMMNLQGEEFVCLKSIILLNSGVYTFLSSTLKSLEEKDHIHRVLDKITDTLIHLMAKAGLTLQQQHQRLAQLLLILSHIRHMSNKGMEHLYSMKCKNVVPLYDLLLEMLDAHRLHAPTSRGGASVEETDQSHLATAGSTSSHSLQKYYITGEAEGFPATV

Biological target: estrogen receptor alpha (ER) (human (endogenous in MCF-7 and ZR-75)) (UniProt P03372)
Assay: affinity purification with mass spectrometry; anti-ER antibody (Santa Cruz sc-8002) on Dynabeads Protein G, 1.5 mg lysate of MCF-7 or ZR-75 cells overnight at 4°C; cells starved, vehicle or 10 µM ERX-11 for 2 hr, then 10 nM E2 for 2 hr; the named proteins are ER binders whose co-precipitation was disrupted by ERX-11

binding, binds:
B1
B2
B3

Reference: publication PMC5548489
